Data as given in patent US20100292200A1, “Methods for Modulating Apoptosis in Platelets” (The Walter and Eliza Hall Institute of Medical Research, priority 2006, published 2010).
No constants are given. Whether binding was seen depends on the method and setting. In cells and extracts the contact can be indirect. Some results given as binding are weak or reduced against the parent protein; the word gives no strength. For part of these data: Where a sequence is shown, tags or fusion partners need not be part of it.

Chains of the proteins cited; added tags and fusions are not shown. Lines headed by an entry give the natural chain unless they say otherwise; changes in a name come on top.
UniProt Q07812: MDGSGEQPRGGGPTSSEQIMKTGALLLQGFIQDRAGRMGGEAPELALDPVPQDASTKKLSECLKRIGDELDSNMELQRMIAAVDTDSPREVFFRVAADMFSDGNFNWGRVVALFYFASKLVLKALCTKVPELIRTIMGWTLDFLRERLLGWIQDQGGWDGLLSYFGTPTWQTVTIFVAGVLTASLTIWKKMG
UniProt Q64373: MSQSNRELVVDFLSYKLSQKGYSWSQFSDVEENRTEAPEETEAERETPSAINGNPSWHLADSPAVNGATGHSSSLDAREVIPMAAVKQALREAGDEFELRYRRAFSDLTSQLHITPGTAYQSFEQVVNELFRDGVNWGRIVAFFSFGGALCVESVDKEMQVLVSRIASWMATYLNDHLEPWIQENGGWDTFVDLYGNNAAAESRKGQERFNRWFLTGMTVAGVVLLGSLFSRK

Experiments:
[1] = target: T1, HA-tagged human Bak (human) (UniProt Q16611); assay: co-immunoprecipitation, 293T cells, FIG. 3B
T1 sequence: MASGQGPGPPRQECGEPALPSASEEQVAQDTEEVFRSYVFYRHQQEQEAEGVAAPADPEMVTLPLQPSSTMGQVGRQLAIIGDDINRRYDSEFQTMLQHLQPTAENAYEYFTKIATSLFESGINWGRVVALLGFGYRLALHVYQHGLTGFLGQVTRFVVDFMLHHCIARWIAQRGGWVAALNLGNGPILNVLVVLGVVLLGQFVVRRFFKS

[2] = target: HA-tagged human Bax (human) (UniProt Q07812); assay: co-immunoprecipitation, 293T cells, FIG. 3B
[3] = target: HA-tagged human Bax (human) (UniProt Q07812); assay: co-immunoprecipitation from Triton X-100 lysates of 293T cells co-expressing FLAG-Bcl-xL and HA-Bax
[4] = target: T1, HA-tagged human Bak (human); assay: co-immunoprecipitation from Triton X-100 lysates of 293T cells co-expressing FLAG-Bcl-xL and HA-Bak

Measured: binding

FLAG-tagged mouse Bcl-xL Plt16 (I182N) mutant (from UniProt Q64373 1-233)
binds: all assays above

FLAG-tagged mouse Bcl-xL Plt20 (Y15C) mutant (from UniProt Q64373 1-233)
binds: all assays above

FLAG-tagged wild type mouse Bcl-xL (from UniProt Q64373 1-233)
binds: [1]
